Measurements: patent US10947260B2, “Phosphinolactone derivatives and pharmaceutical uses thereof” (INSTITUT NATIONAL DE LA SANTE ET DE LA RECHERCHE MEDICALE …, priority 2016, dated 2021)
Entries after “also recorded” stand apart in the source; their conditions may differ. At least one structure is not confirmed: it was looked up by name or label, or the drawing left a doubt.

Chains of the proteins cited; added tags and fusions are not shown. Residues count along the entry.
UniProt P36544, 23-502: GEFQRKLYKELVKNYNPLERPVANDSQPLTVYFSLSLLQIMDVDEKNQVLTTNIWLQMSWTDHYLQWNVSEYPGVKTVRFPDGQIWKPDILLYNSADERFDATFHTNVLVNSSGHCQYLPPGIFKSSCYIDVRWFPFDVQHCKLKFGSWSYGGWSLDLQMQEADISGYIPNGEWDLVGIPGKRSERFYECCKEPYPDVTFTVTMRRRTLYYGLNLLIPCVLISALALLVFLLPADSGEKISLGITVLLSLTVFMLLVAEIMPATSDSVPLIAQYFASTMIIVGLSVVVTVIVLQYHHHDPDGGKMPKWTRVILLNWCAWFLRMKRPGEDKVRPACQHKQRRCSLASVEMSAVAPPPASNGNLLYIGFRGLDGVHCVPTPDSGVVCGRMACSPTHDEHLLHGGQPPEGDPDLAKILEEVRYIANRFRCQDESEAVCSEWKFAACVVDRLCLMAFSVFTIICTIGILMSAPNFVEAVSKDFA

How the values were obtained:
mice = assay: Forced swim test; assay type: in vivo
Experimental: FIG. 13: Assays of compound 3b as positive modulator of the sigma-1 protein. […] Male Swiss mice aged 7 weeks (n=10-12 per group) were forced to swim for 15 min on Day 1 and 6 min on Day 2. They were given NE-100 (10 mg/kg ip), 10 min before compound 3b (10 mg/kg ip) and 20 min before the session of Day 2. Immobility was measured over the last 5 minutes of the session. The vehicle solution was distilled water. F(3.42)=4.45, p<0.01; **p<0.01 vs. group V/V, ##p<0.01 vs. group V/3b, Dunnet test. […] Wild-type mice (Wt, n=14-15) and S1R KO mice (n=9-10) were forced to swim 15 min on Day 1 and 6 min on Day 2. They were given compound 3b (10 mg/kg ip) 20 min before the session on Day 2. Immobility was measured during the last 5 minutes of the session. The vehicle solution was distilled water. F(3.49)=6.64, p<0.001; **p<0.01 vs. group Wt/V, Dunnett test. […] Male Swiss mice aged 7 weeks (n=8-23 per group) were forced to swim for 15 min on Day 1 and 6 min on Day 2. They were given igmesine (10, 30 mg/kg ip) and/or compound 3b (10 mg/kg ip) 20 min before the session on Day 2. NE-100 (10 mg/kg ip) was injected 10 min before igmesine and compound 3b. Immobility was measured during the last 5 minutes of the session. The vehicle solution was distilled water. F(6.90)=5.59, p<0.0001; ***p<0.001 vs. group V, ##p<0.01 vs. group V/Igmesine (10)+3B (5), Dunnett test.

[1] = system: mice treated with scopolamine; assay: Spontaneous alternation in Y-maze, scopolamine amnesia model; assay type: in vivo; settings: 0.1 and 0.3 mg/kg IP, 10 min before scopolamine 0.5 mg/kg SC
Experimental: FIG. 5: Anti-amnesic effect of compound 3b in mice treated with scopolamine: (a, b) spontaneous alternation in Y-maze, and (c, d) passive avoidance. The mice were given compound 3b (0.03-1.5 mg/kg IP) 10 min before scopolamine (0.5 mg/kg SC), 20 min before the Y-maze session or passive avoidance training. Y-maze test: (a) spontaneous alternation and (b) total number of arm entries; retention of passive avoidance: (c) step-through latency and (d) escape latency. […]
The animals were tested for spontaneous alternation performance in a Y-maze, an index of spatial working memory. […] The series of arm entries, including any returns in the same arm were visually analysed. […] The maximum number of alternations is therefore the total number of arm entries less two, and alternation percentage is calculated as (actual alternations/maximum possible alternations)×100. […]
Finally, a first mechanistic analysis of the pharmacological effect in vivo of compound 3b was carried out. With the objective of confirming that the compound, neuroprotective against amyloid toxicity, could also be anti-amnesic in a pharmacological amnesia model, we first determined its effectiveness against the amnesic effects of scopolamine. […]

α7 nicotinic radioligand = target: T1, α7 nicotinic radioligand (Homo sapiens, UniProt P36544); assay: CEREP profiling; assay type: binding
T1 construct: CEREP

CC1(C)COP(=O)(c2cccc(Cl)c2)C(C)(C)N1 (racemic) [Compound 3b, (±)-2-(3-Chlorophenyl)-2-oxo-3,3,5,5-tetramethyl-[1,4,2]-oxazaphosphinane]
antidepressant effect in KO mice for the sigma-1 protein (S1R KO) (mice; 10 mg/kg ip): No antidepressant effect; also recorded: blocked | antidepressant effect (immobility) in forced swim test (mice; 10 mg/kg ip, 20 min before Day 2 session): antidepressant effect | antidepressant effect of 3b combined with igmesine (mice; 3b 5 mg/kg with igmesine 10 mg/kg): Potentiation of the effects of a sigma-1 agonist; also recorded: significant antidepressant effect is observed | mode of action on sigma-1 (mice; conclusion from FIG. 13): acts as allosteric modulator (PAM) of sigma-1 | alternation deficit induced by scopolamine [1]: significantly attenuates alternation deficit | binding of the α7 nicotinic radioligand (α7 nicotinic radioligand): increase in binding
